Results deposited as PubChem BioAssay AID1259405 (NCATS, 2018).
The deposit covers about 50,000 reagents; shown is an unselected part. About 4,000 of them (8%) were called active. 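Mouse siRNA library applied to hamster cells; one well for each siRNA.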 Entries without a mark were called inactive. Reagents against one gene are numbered here.

- Test: 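Silenced genes that increase secreted GFP made by CHO cells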 (primary screen)
- System: Chinese hamster CHO-K1 ovary cells with stable secreted eGFP expression
- Reagent: single siRNA against mouse genes, 0.8 pmol siRNA per well (2 µl of 400 nM stock)
- Time to read-out: 3 days
- Measurement: 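Percent of the per-plate non-targeting control median for intracellular GFP per well by laser scanning cytometry and for cell viability by ATP luminescence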
- Direction: GFP, % of control: higher = more GFP per well, higher productivity; viability (ATP), % of control: higher = more viable cells (more ATP)
- Call rule: 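Called active when intracellular GFP, relative to negative control, is at or above 120%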

| target gene | siRNA no. | GFP, % of control | viability (ATP), % of control |
| --- | --- | --- | --- |
| Spidr (GeneID 224008) | 1 | 40.6 | 39.8 |
| Spidr (GeneID 224008) | 2 | 31.7 | 59.5 |
| Spidr (GeneID 224008) | 3 | 87.9 | 79.7 |
| Slc5a8 (GeneID 216225) | 1 | 71.6 | 46.6 |
| Slc5a8 (GeneID 216225) | 2 | 81.8 | 62.2 |
| Slc5a8 (GeneID 216225) | 3 | 115 | 69 |
| Miga1 (GeneID 215708) | 1 | 34.1 | 32.3 |
| Miga1 (GeneID 215708) | 2 | 89.9 | 108 |
| Miga1 (GeneID 215708) | 3 | 89.5 | 103 |
| Clasrp (GeneID 53609) | 1 | 76.6 | 91.7 |
| Clasrp (GeneID 53609) | 2 | 77.8 | 67.3 |
| Clasrp (GeneID 53609) | 3 | 57.8 | 52 |
| Polr1g (GeneID 70333) | 1 | 77.3 | 36.5 |
| Polr1g (GeneID 70333) | 2 | 96 | 62.2 |
| Polr1g (GeneID 70333) | 3 | 93 | 81.4 |
| Arnt (GeneID 11863) | 1 | 69.8 | 65.2 |
| Arnt (GeneID 11863) | 2 | 79.4 | 84.4 |
| Dnajc11 (GeneID 230935) | 1 | 59.8 | 70 |
| Dnajc11 (GeneID 230935) | 2 | 97.7 | 80.3 |
| Dnajc11 (GeneID 230935) | 3 | 110 | 111 |
| Cox4i1 (GeneID 12857) | 1 | 79.3 | 86.9 |
| Cox4i1 (GeneID 12857) | 2 | 36.6 | 32.2 |
| Cox4i1 (GeneID 12857) | 3 | 88.1 | 73.6 |
| Nptx2 (GeneID 53324) | 1 | 91.4 | 94.5 |
| Nptx2 (GeneID 53324) | 2 | 89.5 | 79.8 |
| Vipr1 (GeneID 22354) | 1 | 157 (active) | 101 |
| Vipr1 (GeneID 22354) | 2 | 36.8 | 63.8 |
| Vipr1 (GeneID 22354) | 3 | 36.3 | 59 |
| Arid2 (GeneID 77044) | 1 | 41.4 | 39.1 |
| Arid2 (GeneID 77044) | 2 | 82 | 100 |
| Arid2 (GeneID 77044) | 3 | 21 | 23.1 |
| Irx1 (GeneID 16371) | 1 | 93.3 | 80.9 |
| Irx1 (GeneID 16371) | 2 | 98.6 | 67.1 |
| Irx1 (GeneID 16371) | 3 | 87.1 | 90.5 |
| Pbdc1 (GeneID 67683) | 1 | 118 | 81.7 |
| Pbdc1 (GeneID 67683) | 2 | 35.1 | 36.9 |
| Pbdc1 (GeneID 67683) | 3 | 88.7 | 101 |
| Hoxd11 (GeneID 15431) | 1 | 101 | 52.4 |
| Hoxd11 (GeneID 15431) | 2 | 112 | 97.5 |
| Hoxd11 (GeneID 15431) | 3 | 121 (active) | 87.4 |
| Nudt11 (GeneID 58242) | 1 | 35.5 | 75.4 |
| Nudt11 (GeneID 58242) | 2 | 80.7 | 131 |
| Nudt11 (GeneID 58242) | 3 | 57.1 | 52.3 |
| Slc26a1 (GeneID 231583) | 1 | 109 | 65.4 |
| Slc26a1 (GeneID 231583) | 2 | 35.1 | 58.5 |
| Slc26a1 (GeneID 231583) | 3 | 25.9 | 63 |
| Slc60a2a (GeneID 215929) | 1 | 119 | 70.3 |
| Slc60a2a (GeneID 215929) | 2 | 78.6 | 59.1 |
| Slc60a2a (GeneID 215929) | 3 | 88.6 | 81.7 |
| Or13p8 (GeneID 258301) | 1 | 84.1 | 60.2 |
| Or13p8 (GeneID 258301) | 2 | 95.4 | 91.8 |
| Or13p8 (GeneID 258301) | 3 | 53 | 46.3 |
| Rnase11 (GeneID 497113) | 1 | 90.9 | 119 |
| Rnase11 (GeneID 497113) | 2 | 107 | 46.9 |
| Rnase11 (GeneID 497113) | 3 | 53.7 | 85.2 |
| Champ1 (GeneID 101994) | 1 | 74.4 | 48.6 |
| Champ1 (GeneID 101994) | 2 | 102 | 114 |
| Champ1 (GeneID 101994) | 3 | 33.6 | 27.4 |
| Nsun7 (GeneID 70918) | 1 | 83.8 | 72.6 |
| Nsun7 (GeneID 70918) | 2 | 49.8 | 69 |
| Nsun7 (GeneID 70918) | 3 | 87.8 | 94 |
| Igf1r (GeneID 16001) | 1 | 58.3 | 40.5 |
| Galc (GeneID 14420) | 1 | 53.1 | 63.7 |
| Galc (GeneID 14420) | 2 | 83.9 | 81.1 |
| Galc (GeneID 14420) | 3 | 92.4 | 82 |
| Chrm5 (GeneID 213788) | 1 | 93.1 | 76.5 |
| Chrm5 (GeneID 213788) | 2 | 71.3 | 60.3 |
| Chrm5 (GeneID 213788) | 3 | 66.8 | 50.9 |
| Bicc1 (GeneID 83675) | 1 | 72.2 | 80.1 |
| Bicc1 (GeneID 83675) | 2 | 85.1 | 77.5 |
| Bicc1 (GeneID 83675) | 3 | 43.8 | 47.8 |
| Pik3r4 (GeneID 75669) | 1 | 90.7 | 74.9 |
| Dnaja2 (GeneID 56445) | 1 | 130 (active) | 92.1 |
| Dnaja2 (GeneID 56445) | 2 | 85.7 | 78.7 |
| Dnaja2 (GeneID 56445) | 3 | 59.2 | 107 |
| Sbno1 (GeneID 243272) | 1 | 88.7 | 67.7 |
| Sbno1 (GeneID 243272) | 2 | 71.5 | 77.6 |
| Sbno1 (GeneID 243272) | 3 | 71.2 | 51.6 |
| Fkbp6 (GeneID 94244) | 1 | 88.6 | 110 |
| Fkbp6 (GeneID 94244) | 2 | 86 | 79.4 |
| Fkbp6 (GeneID 94244) | 3 | 55.1 | 61 |
| D830013H23Rik (GeneID 319412) | 1 | 66.9 | 84.1 |
| D830013H23Rik (GeneID 319412) | 2 | 68 | 82.1 |
| D830013H23Rik (GeneID 319412) | 3 | 86.7 | 92.8 |

Part of the list above, limited to “GFP, % of control”:
Dnajc11 (GeneID 230935) #2: 97.7
Dnajc11 (GeneID 230935) #3: 110
Cox4i1 (GeneID 12857) #1: 79.3
Cox4i1 (GeneID 12857) #2: 36.6
Cox4i1 (GeneID 12857) #3: 88.1
Nptx2 (GeneID 53324) #1: 91.4
Nptx2 (GeneID 53324) #2: 89.5
Vipr1 (GeneID 22354) #1: 157 (active)
Vipr1 (GeneID 22354) #2: 36.8
Vipr1 (GeneID 22354) #3: 36.3
Arid2 (GeneID 77044) #1: 41.4
